Measurements published in article PMC5996148.
This is one part of the list. For some of these results: Construct or isoform of the protein are uncertain.

Tests used:
Assay in all cases: protein microarray (ProtoArray v5.0), streptavidin-Alexa Fluor 647
Conditions in all cases: 3'-biotin; 20 mM Tris (pH 7.5), 5 mM MgCl2, 100 mM KCl, 0.1% Tween-20, A/T-rich and random oligonucleotide blockers; temperature not stated; high values mean tight binding
C4orf19 (human) = tested on: C4orf19 (human)
C4orf35 (human) = tested on: C4orf35 (human)
C5orf3 (human) = tested on: C5orf3 (human)
C6orf106 (human) = tested on: C6orf106 (human)
C6orf108 (human) = tested on: C6orf108 (human)
C6orf118 (human) = tested on: C6orf118 (human)
C6orf130 = target: T1, C6orf130 (UniProt Q9Y530)
T1 sequence: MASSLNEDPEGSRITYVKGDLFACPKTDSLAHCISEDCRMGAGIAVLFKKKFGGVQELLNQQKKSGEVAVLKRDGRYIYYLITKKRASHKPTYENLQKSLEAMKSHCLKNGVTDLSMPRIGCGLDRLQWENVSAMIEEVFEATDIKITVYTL

C6orf145 (human) = tested on: C6orf145 (human)
C6orf206 (human) = tested on: C6orf206 (human)
C6orf49 (human) = tested on: C6orf49 (human)

“GGGGACAGGGGTATGGGGAGGGG [G4-3 biotinylated (CtG)]” showed a binding signal (C4orf19 (human)) of -0.315 z-score, a binding signal (C4orf35 (human)) of -0.332 z-score and a binding signal (C5orf3 (human)) of -0.339 z-score. The binding signal (C6orf106 (human)) was -0.323 z-score, the binding signal (C6orf108 (human)) was -0.31 z-score and the binding signal (C6orf118 (human)) was -0.333 z-score. It also gave a binding signal (C6orf130) of 5.72 z-score, a binding signal (C6orf145 (human)) of -0.332 z-score and a binding signal (C6orf206 (human)) of -0.33 z-score. It also gave a binding signal (C6orf49 (human)) of -0.342 z-score.
